# Where “and” joins values, the source holds several entries; their conditions need not be identical. Equal values may be shown once. Where a name gives a salt, the structure may show the parent alone. ± gives the standard deviation of the averaged measurements. The list shows a part of the results. Part of the spread comes from offsets between plates or batches.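 Assay uses culture-activated primary human stellate myofibroblasts; lipid droplet recovery indicates inactivation. Measured: proportion of Hoechst-counted cells over a plate-specific Bodipy cutoff, duplicate wells, DMSO and nortriptyline as per-plate negative and positive controls. A hit scores, control-normalized, above the plate's top-tenth-percentile nortriptyline wells or ranks among its three best wells. Final well concentrations not reported.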
# Test system: primary human hepatic stellate cells (donor 1)
# Assay: percent Bodipy-positive cells; higher = more lipid droplet accumulation
# Conditions: 48 h
# [1] = library stock concentration: 1 mM
# [2] = library stock concentration: 3.33 mM
# [3] = library stock concentration: 6.3 mM
# [4] = library stock concentration: 10 mM
# [5] = library stock concentration: 80 uM
# [6] = library stock concentration: 400 uM
# [7] = library stock concentration: 2 mM
compound,measurement,setting,value
CCCCCCCC/C=C\CCCCCCCC(=O)N[C@H](CO)Cc1ccc(O)cc1,percent Bodipy-positive cells,[1],10.7 ± 1.7%
COC(=O)Nc1nc2cc([S+]([O-])c3ccccc3)ccc2[nH]1 (centres undefined) [Oxfendazole],percent Bodipy-positive cells,[2],6.59 ± 2.9%
same,percent Bodipy-positive cells,[3],5.95% and 8.24%
same,percent Bodipy-positive cells,[4],19.3% and 38.6%
CCCCC[C@@H](O)/C=C/[C@H]1C(=O)C[C@H](O)[C@@H]1CCCCCCCO [Prostaglandin D1 Alcohol],percent Bodipy-positive cells,[1],12.8 ± 3%
C[C@@H]1C(=O)NC2=Nc3cccc(Cl)c3CN21 [Quazinone],percent Bodipy-positive cells,[4],12.4 ± 2.4%
NC1CCN(c2nc3c(cc2F)c(=O)c(C(=O)O)cn3-c2ccc(F)cc2F)C1 (centres undefined) [Tosufloxacin],percent Bodipy-positive cells,library stock concentration: 4.9 mM,5.85 ± 4.7%
NC1CCN(c2nc3c(cc2F)c(=O)c(C(=O)O)cn3-c2ccc(F)cc2F)C1 (centres undefined),percent Bodipy-positive cells,[4],44.8 ± 20%
"O=c1[nH][nH]c2nnc(-c3c(-c4ccccc4)nn4ccccc34)cc12 [ERK Inhibitor II, Negative Control]",percent Bodipy-positive cells,[2],13.55 ± 0.13%
Cn1ccc2cc3c(cc21)CCN3C(=O)Nc1cccnc1,percent Bodipy-positive cells,[4],31.9% and 11.4%
"CCCCC/C=C\CCCC/C=C\C/C=C\CCCC(=O)O [5(Z),8(Z),14(Z)-Eicosatrienoic Acid]",percent Bodipy-positive cells,[1],9.33 ± 0.5%
O=C(O)CP(=O)(O)O [Phosphonoacetic acid],percent Bodipy-positive cells,[4],13 ± 1%
C=CC(=O)Nc1cccc(Nc2nc(Nc3ccc(OCCOC)cc3)ncc2F)c1 [Spebrutinib],percent Bodipy-positive cells,[5],9.09 ± 0.91%
same,percent Bodipy-positive cells,[6],15.4 ± 9%
same,percent Bodipy-positive cells,[7],13.9 ± 2.1%
same,percent Bodipy-positive cells,[4],34.7 ± 1.1%
C=CC(=O)Nc1cccc(Nc2nc(Nc3ccc(OCCOC)cc3)ncc2F)c1,percent Bodipy-positive cells,[2],40.7 ± 7.7%
same,percent Bodipy-positive cells,[4],83.8 ± 3.4%
N#Cc1c(NC(=O)c2cccc3ccccc23)sc2c1CCCC2 [JNK Inhibitor IX],percent Bodipy-positive cells,[4],72.6 ± 7.2%
CCC(=O)Nc1cccc(Oc2nc(Nc3ccc(N4CCN(C)CC4)cc3OC)ncc2Cl)c1 [listing 1 of 2 here],percent Bodipy-positive cells,[5],10.9 ± 1.5%
same,percent Bodipy-positive cells,[6],13 ± 2.9%
same,percent Bodipy-positive cells,[7],27.2 ± 11%
same,percent Bodipy-positive cells,[2],81.9 ± 2.4%
Clc1cccc2c1CN(C1=NCCN1)C2,percent Bodipy-positive cells,[4],6.87 ± 3.1%
O=C(/C=C/c1c(C(=O)O)[nH]c2cc(Cl)cc(Cl)c12)Nc1ccccc1 [Gavestinel],percent Bodipy-positive cells,[4],7.19 ± 1.4%
Nc1ncnc2nc(-c3ccc(N4CCOCC4)nc3)cc(-c3cccc(Br)c3)c12,percent Bodipy-positive cells,[4],81.4 ± 8.5%
CCCCN(CC)c1nc(C)nc2c1c(C)cn2-c1c(C)cc(C)cc1C,percent Bodipy-positive cells,[4],48.4 ± 7.6%
N#CC(C#N)=C(N)/C(C#N)=C/c1cc(O)c(O)c(O)c1 [Tyrphostin 51],percent Bodipy-positive cells,[4],16.4 ± 2.8%
NC(CO)C(=O)NNCc1ccc(O)c(O)c1O (centres undefined) [Benserazide hydrochloride],percent Bodipy-positive cells,,7.96 ± 3.6%
same,percent Bodipy-positive cells,library stock concentration: 6.8 mM,1.69 ± 0.62%
NC(CO)C(=O)NNCc1ccc(O)c(O)c1O (centres undefined) [Benserazide HCl],percent Bodipy-positive cells,[2],7.1 ± 4.2%
same,percent Bodipy-positive cells,library stock concentration: 7.8 mM,5.92 ± 0.64%
same,percent Bodipy-positive cells,[4],10.6 ± 0.35%
CCC(=O)Nc1cccc(Oc2nc(Nc3ccc(N4CCN(C)CC4)cc3OC)ncc2Cl)c1 [listing 2 of 2 here],percent Bodipy-positive cells,[4],96.9 ± 1.9%
Cc1cccc(C(=O)NCN2CCN(c3ccccc3C#N)CC2)c1,percent Bodipy-positive cells,[4],8.45 ± 0.7%
"Cc1cccc(C(=O)NCN2CCN(c3ccccc3C#N)CC2)c1 [PD 168,077 maleate]",percent Bodipy-positive cells,[4],17 ± 1.6%
CN(C)CCCN1c2ccccc2CCc2ccccc21 [Imipramine hydrochloride],percent Bodipy-positive cells,,71.2 ± 2.9%
same,percent Bodipy-positive cells,[3],43.8 ± 2%
same,percent Bodipy-positive cells,[4],65 ± 4.6%
CN(C)CCCN1c2ccccc2CCc2ccccc21,percent Bodipy-positive cells,[4],80 ± 5%
CN(C)CCCN1c2ccccc2CCc2ccccc21 [Imipramine HCl],percent Bodipy-positive cells,library stock concentration: 7.1 mM,51.13 ± 0.19%
C[C@H]1COc2c(N3CCN(C)CC3)c(F)cc3c(=O)c(C(=O)O)cn1c23 [Levofloxacin],percent Bodipy-positive cells,[2],12.4 ± 0.87%
C[C@H]1COc2c(N3CCN(C)CC3)c(F)cc3c(=O)c(C(=O)O)cn1c23,percent Bodipy-positive cells,[4],10.5 ± 3.3%
NCCC[C@H](N)CC(=O)N[C@H]1CNC(=O)[C@H]([C@H]2C[C@H](O)NC(N)=N2)NC(=O)/C(=C/NC(N)=O)NC(=O)[C@H](CO)NC(=O)[C@H](CO)NC1=O [Viomycin sulfate],percent Bodipy-positive cells,,7.51 ± 3.1%
CCN(CC)CCCCN1c2ccccc2Oc2ccc(Cl)cc21 [Akt Inhibitor X],percent Bodipy-positive cells,[2],30.3 ± 0.51%
CCN(CC)CCCCN1c2ccccc2Oc2ccc(Cl)cc21 [10-DEBC hydrochloride],percent Bodipy-positive cells,[4],94.2 ± 6%
CCCC(=O)OCOC(=O)C1=C(C)NC(C)=C(C(=O)OC)C1c1cccc(Cl)c1Cl (centres undefined) [Clevidipine Butyrate],percent Bodipy-positive cells,[2],6.8 ± 1.9%
same,percent Bodipy-positive cells,[4],16.2 ± 1.4%
CN(C/C=C/C#CC(C)(C)C)Cc1cccc2ccccc12 [Terbinafine],percent Bodipy-positive cells,[2],9.86 ± 3.5%
same,percent Bodipy-positive cells,[4],11.6 ± 0.38%
CN(C/C=C/C#CC(C)(C)C)Cc1cccc2ccccc12 [Terbinafine HCl],percent Bodipy-positive cells,[2],8.68 ± 2.5%
same,percent Bodipy-positive cells,library stock concentration: 6.9 mM,10.7 ± 5.7%
same,percent Bodipy-positive cells,[4],18.8 ± 5.9%
CN(C/C=C/C#CC(C)(C)C)Cc1cccc2ccccc12,percent Bodipy-positive cells,[4],13.8 ± 2.2%
CN(C/C=C/C#CC(C)(C)C)Cc1cccc2ccccc12 [Terbinafine hydrochloride],percent Bodipy-positive cells,library stock concentration: 6.1 mM,15.8 ± 5.6%
CN1CCN(c2ccc(OC(F)(F)F)c(Nc3ncc4c(n3)-c3c(c(C(N)=O)nn3CCO)CC4)c2)CC1,percent Bodipy-positive cells,[5],8.457 ± 0.039%
same,percent Bodipy-positive cells,[6],6.31 ± 3%
same,percent Bodipy-positive cells,[7],16.8 ± 1.4%
same,percent Bodipy-positive cells,[2],54.7 ± 1.3%
same,percent Bodipy-positive cells,[4],81 ± 3.3%
O=c1[nH]cnc2c1ncn2[C@H]1CC[C@@H](CO)O1 [Didanosine],percent Bodipy-positive cells,,24.7 ± 4.3%
Fc1ccc([C@@H]2CCNC[C@H]2COc2ccc3c(c2)OCO3)cc1 [Paroxetine hydrochloride hemihydrate (MW = 374.83)],percent Bodipy-positive cells,[4],98.3 ± 1.1%
Fc1ccc([C@@H]2CCNC[C@H]2COc2ccc3c(c2)OCO3)cc1 [Paroxetine hydrochloride],percent Bodipy-positive cells,[4],80.5 ± 5.7%
Fc1ccc([C@@H]2CCNC[C@H]2COc2ccc3c(c2)OCO3)cc1 [Paroxetine],percent Bodipy-positive cells,[4],99.83 ± 0.23%

# Part of the list above, with bars between the fields:
compound | measurement | setting | value
COC(=O)Nc1nc2cc([S+]([O-])c3ccccc3)ccc2[nH]1 (centres undefined) [Oxfendazole] | percent Bodipy-positive cells | [3] | 5.95% and 8.24%
O=C(O)CP(=O)(O)O [Phosphonoacetic acid] | percent Bodipy-positive cells | [4] | 13 ± 1%
CCC(=O)Nc1cccc(Oc2nc(Nc3ccc(N4CCN(C)CC4)cc3OC)ncc2Cl)c1 [listing 1 of 2 here] | percent Bodipy-positive cells | [2] | 81.9 ± 2.4%
CN(C/C=C/C#CC(C)(C)C)Cc1cccc2ccccc12 [Terbinafine hydrochloride] | percent Bodipy-positive cells | library stock concentration: 6.1 mM | 15.8 ± 5.6%
CN1CCN(c2ccc(OC(F)(F)F)c(Nc3ncc4c(n3)-c3c(c(C(N)=O)nn3CCO)CC4)c2)CC1 | percent Bodipy-positive cells | [7] | 16.8 ± 1.4%
